PubChem BioAssay AID1259308 | NCATS, 2017
Test: 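Knock-downs that increase output of a recombinant reporter protein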 (primary screen). Cell system: human HEK293 embryonic kidney cells stably expressing firefly luciferase (HEK-CMV-Luc2-Hygro). Knock-down reagent: single siRNA against human genes, 0.8 pmol siRNA per well. Timing: 72 h. Read-out: 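Reporter luminescence and viable-cell signal on separate replicate plates, given as percent of non-targeting control and median/MAD z-scores, plus per-cell luciferase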. Scale: total luciferase, z-score: higher = more reporter protein produced. Active means: 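An siRNA counts as active if its total luciferase robust z-score exceeds 3; genes with two or more such siRNAs out of three were retested with fresh siRNAs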. Calls: active = raised luciferase; inactive = no rise.
This is a random part of about 59,000 deposited reagents. Over the whole deposit, about 1,510 (2.6%) were called active. 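Calls use total luciferase alone and ignore viability, so some active siRNAs may act by altering cell number.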 Reagents against one gene are numbered here. Further read-outs or replicates are left out here.

After knock-down of UBA3 (GeneID 9039) #1 the results were total luciferase, z-score -1.24; inactive.
After knock-down of UBA3 (GeneID 9039) #2 the results were total luciferase, z-score 0.677; inactive.
Depletion of UBA3 (GeneID 9039) #3 resulted in: total luciferase, z-score 0.41; inactive.
For CBLB (GeneID 868) #1, the entry reads total luciferase, z-score 0.347; inactive.
CBLB (GeneID 868) #2 gave total luciferase, z-score 2.01; inactive.
With knock-down of CBLB (GeneID 868) #3, the record shows total luciferase, z-score -0.19; inactive.
Knock-down of GSTT2 (GeneID 2953) #1 came out at: total luciferase, z-score 0.795; inactive.
For GSTT2 (GeneID 2953) #2, the entry reads total luciferase, z-score 0.263; inactive.
For GSTT2 (GeneID 2953) #3 the deposit lists total luciferase, z-score 0.364; inactive.
Silencing of ADH7 (GeneID 131) #1 resulted in: total luciferase, z-score 0.946; inactive.
For ADH7 (GeneID 131) #2, the entry reads total luciferase, z-score -0.273; inactive.
ADH7 (GeneID 131) #3 scored total luciferase, z-score -0.0313; inactive.
With knock-down of NUBPL (GeneID 80224) #1 the results were total luciferase, z-score -2.11; inactive.
Knock-down of NUBPL (GeneID 80224) #2 came out at: total luciferase, z-score -0.702; inactive.
Silencing of NUBPL (GeneID 80224) #3 came out at: total luciferase, z-score -0.316; inactive.

Reformatted: entries from further up.
CBLB (GeneID 868) #1
- total luciferase, z-score: 0.347
- outcome: inactive

CBLB (GeneID 868) #2
- total luciferase, z-score: 2.01
- outcome: inactive

The results go on:
Silencing of MAP4 (GeneID 4134) #1 gave: total luciferase, z-score 0.582; inactive.
MAP4 (GeneID 4134) #2 scored total luciferase, z-score 0.962; inactive.
MAP4 (GeneID 4134) #3 gave total luciferase, z-score -1.93; inactive.
With knock-down of CBR4 (GeneID 84869) #1, the screen gave total luciferase, z-score -0.885; inactive.
With knock-down of CBR4 (GeneID 84869) #2, the screen gave total luciferase, z-score 0.933; inactive.
After knock-down of CBR4 (GeneID 84869) #3, the record shows total luciferase, z-score -1.65; inactive.
With knock-down of MRPS7 (GeneID 51081) #1 the results were total luciferase, z-score -0.0362; inactive.
Against MRPS7 (GeneID 51081) #2 the deposit lists total luciferase, z-score 1.39; inactive.
With knock-down of MRPS7 (GeneID 51081) #3, the screen gave total luciferase, z-score -1.67; inactive.
Silencing of CDH11 (GeneID 1009) #1 came out at: total luciferase, z-score -0.3; inactive.
CDH11 (GeneID 1009) #2 showed total luciferase, z-score -0.0373; inactive.
Knock-down of CDH11 (GeneID 1009) #3 resulted in: total luciferase, z-score -0.74; inactive.
LRRC3C (GeneID 100505591) #1 showed total luciferase, z-score 2.32; inactive.
LRRC3C (GeneID 100505591) #2 scored total luciferase, z-score 3.85; active.
Against LRRC3C (GeneID 100505591) #3, the entry reads total luciferase, z-score 0.281; inactive.
For KMT2D (GeneID 8085) #1, the values are total luciferase, z-score 0.604; inactive.
With knock-down of KMT2D (GeneID 8085) #2 the results were total luciferase, z-score -1.29; inactive.
With knock-down of KMT2D (GeneID 8085) #3, the screen gave total luciferase, z-score -0.051; inactive.
PAGE5 (GeneID 90737) #1 showed total luciferase, z-score -0.212; inactive.
Against PAGE5 (GeneID 90737) #2 the deposit lists total luciferase, z-score -0.0306; inactive.
After knock-down of PAGE5 (GeneID 90737) #3 the results were total luciferase, z-score 0.776; inactive.
For LYL1 (GeneID 4066) #1 the deposit lists total luciferase, z-score -1.77; inactive.
Against LYL1 (GeneID 4066) #2, the entry reads total luciferase, z-score -1.46; inactive.
Against LYL1 (GeneID 4066) #3 the deposit lists total luciferase, z-score -1.08; inactive.
GPR158 (GeneID 57512) #1 showed total luciferase, z-score -1.17; inactive.
GPR158 (GeneID 57512) #2 gave total luciferase, z-score -0.009; inactive.
GPR158 (GeneID 57512) #3 gave total luciferase, z-score 0.776; inactive.
